PubChem BioAssay AID1053208 – Peter MacCallum Cancer Centre, 2014
In all, the deposit lists about 17,000 reagents; this is an unselected part. In the full data, 788 (4.7%) are marked active. 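Calls rest on z-score classes alone; an extra cut-off of viability at most 70% of control was not applied to them.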 A number with no mark means an inactive call. Not all columns of the deposit are shown.

Purpose: 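Synthetic lethal interactions between gene loss and doxorubicin in osteosarcoma cells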 (primary screen)
Cell system: mouse osteosarcoma cells, early-passage culture from an engineered mouse model of fibroblastic bone tumour
Reagents: siRNA pool against mouse genes, 40 nM
Duration: about 120 h (48 h before drug, then 72 h with drug)
Challenge: doxorubicin 100 nM for 72 h, roughly 30-40% inhibitory dose
Measurement: 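Viability read as ATP luminescence after 72 h of 100 nM doxorubicin or none, duplicate wells averaged, scaled to non-targeting siRNA, then expressed as robust z-scores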
Reading the numbers: viability z-score with doxorubicin: higher = more viable cells under doxorubicin; viability z-score without drug: higher = more viable cells with knock-down alone; z-score of drug to no-drug ratio: higher = less drug sensitisation by knock-down
Call rule: 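a pool counts as active when its viability z-score with doxorubicin is -2 or below and its z-score without drug lies between -2 and 2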

no.	target gene	combined z-score class	viability z-score with doxorubicin	viability z-score without drug	z-score of drug to no-drug ratio
1	Plcb4	high cell count with doxorubicin only	2.02	0.84	1.57
2	Bsnd	no change with or without drug	0	-0.84	0.67
3	Exoc2	high cell count with doxorubicin only	2.25	-0.17	2.59
4	Sdr16c5	low cell count with and without drug	-6.52	-5.73	-4.38
5	Med27	no change with or without drug	-0.9	0.51	-1.12
6	Klf16	no change with or without drug	0.22	-0.17	0.45
7	Gp1bb	no change with or without drug	-1.12	-0.84	-0.56
8	Usp17la	no change with or without drug	-0.67	1.18	-1.35
9	Mcts2	no change with or without drug	-1.8	1.52	-2.59
10	Ovol2	no change with or without drug	0.67	1.52	-0.22
11	Morc1	low cell count with doxorubicin only (active)	-2.02	0.17	-2.14
12	Inha	no change with or without drug	-0.11	0.51	-0.34
13	Cdk9	no change with or without drug	-1.12	-1.85	0.22
14	Cfh	no change with or without drug	0.34	1.01	-0.22
15	Muc13	no change with or without drug	0.56	-0.17	0.79
16	Or1j17	no change with or without drug	-0.45	-1.52	0.79
17	5330438I03Rik	no change with or without drug	1.8	1.18	1.12
18	Grin2b	no change with or without drug	0.67	-1.35	1.91
19	Gm10128	no change with or without drug	1.57	0.84	1.12
20	Angel1	no change with or without drug	1.35	1.52	0.45
21	Hint1	no change with or without drug	1.8	1.85	0.67
22	Ahnak	no change with or without drug	-1.35	-0.17	-1.24
23	Fndc9	no change with or without drug	1.35	-1.18	2.47
24	Nampt	no change with or without drug	0.11	-0.17	0.34
25	Cggbp1	low cell count with doxorubicin only (active)	-2.7	-1.01	-2.14
26	Ly6g6c	no change with or without drug	0.79	-0.51	1.35
27	Traf6	no change with or without drug	-0.67	0.17	-0.67
28	Ccdc71l	no change with or without drug	-0.45	0.51	-0.67
29	Il25	no change with or without drug	0.34	0.84	-0.11
30	Cacna1b	no change with or without drug	0.22	-1.52	1.57
31	Mindy1	no change with or without drug	-1.57	0	-1.57
32	Ces1f	no change with or without drug	-0.67	-0.17	-0.45
33	Rab33b	no change with or without drug	1.35	1.85	0.22
34	Kctd15	no change with or without drug	-0.67	-0.51	-0.22
35	Or13p4	no change with or without drug	0.79	-0.84	1.57
36	D630039A03Rik	high cell count without drug only	0.11	2.19	-1.12
37	Tgm1	no change with or without drug	0.9	0.17	0.9
38	LOC67527	no change with or without drug	0.79	-0.67	1.46
39	Atf5	low cell count with doxorubicin only (active)	-2.02	-1.18	-1.35
40	Ky	low cell count without drug only	-1.91	-2.19	-0.45
41	Atg12	low cell count with doxorubicin only (active)	-2.36	0.84	-2.81
42	Slc22a3	no change with or without drug	0.11	0.84	-0.34
43	Hao2	no change with or without drug	0.45	-0.51	1.01
44	Stambpl1	no change with or without drug	0	0.84	-0.45
45	Mrps30	no change with or without drug	1.01	0.17	1.01
46	Pias3	no change with or without drug	-0.79	-1.52	0.34
47	Ptrh2	no change with or without drug	-0.45	-0.17	-0.22
48	Vmn1r52	no change with or without drug	0.45	0.51	0.22
49	Or9g4b	no change with or without drug	0.34	-0.51	0.79
50	Hnrnpa2b1	no change with or without drug	0	0	0.11

Hits (from the list above):
target gene	combined z-score class	viability z-score with doxorubicin	viability z-score without drug	z-score of drug to no-drug ratio
Morc1	low cell count with doxorubicin only (active)	-2.02	0.17	-2.14
Cggbp1	low cell count with doxorubicin only (active)	-2.7	-1.01	-2.14
Atf5	low cell count with doxorubicin only (active)	-2.02	-1.18	-1.35
Atg12	low cell count with doxorubicin only (active)	-2.36	0.84	-2.81
